## Library screen at single concentrations

Chains of the proteins cited; added tags and fusions are not shown. Residues count along the entry.
UniProt Q8IDJ8, 1-583: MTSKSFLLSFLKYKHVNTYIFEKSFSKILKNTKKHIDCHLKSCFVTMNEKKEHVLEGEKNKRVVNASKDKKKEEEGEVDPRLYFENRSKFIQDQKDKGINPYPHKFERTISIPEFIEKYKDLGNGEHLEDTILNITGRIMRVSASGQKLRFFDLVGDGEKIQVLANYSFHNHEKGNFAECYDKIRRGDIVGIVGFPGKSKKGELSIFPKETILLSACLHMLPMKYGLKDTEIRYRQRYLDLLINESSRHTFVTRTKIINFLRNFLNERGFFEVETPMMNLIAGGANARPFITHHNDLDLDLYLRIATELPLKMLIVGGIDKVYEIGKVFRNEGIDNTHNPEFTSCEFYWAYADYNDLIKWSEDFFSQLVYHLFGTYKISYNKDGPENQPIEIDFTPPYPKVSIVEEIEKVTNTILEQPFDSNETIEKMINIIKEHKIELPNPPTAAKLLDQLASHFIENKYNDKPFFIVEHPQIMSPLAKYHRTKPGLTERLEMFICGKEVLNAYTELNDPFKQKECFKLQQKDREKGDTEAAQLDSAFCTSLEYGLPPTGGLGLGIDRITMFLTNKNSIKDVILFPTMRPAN

Toxoplasma: 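Assay of Toxoplasma gondii numbers, read through their beta-galactosidase reporter with a colour substrate. Concentration: 10 µM. The record gives no direction; the compounds picked for IC50 retests had high values, so higher reads as fewer parasites. Size under these conditions: about 67,000 compounds, about 260 of them at 50% or above in at least one test.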
T. brucei: 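Whole-parasite assay of Trypanosoma brucei over 72 hours; the read-out is not stated. Tested at 30 µM. Direction is inferred from retests: higher values go with stronger inhibition. Values scatter widely below zero; nearly all retest evidence comes from the higher of the two concentrations used. Of about 64,000 compounds tested this way, about 940 (1.5%) reached 50% or more in at least one test.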
Leishmania in macrophages: 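Cell assay of Leishmania donovani living inside macrophages; the read-out is not stated. Concentration: 30 µM. Higher reads as stronger inhibition (inferred: compounds with an IC50 in retests scored well above the rest). Size under these conditions: about 69,000 compounds, about 1,000 of them at 50% or above in at least one test.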
PfKRS1: 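Enzyme assay of the cytosolic lysyl-tRNA synthetase in 384-well plates, read by luminescence. Target: Lysine-tRNA ligase, Plasmodium falciparum 3D7 (UniProt Q8IDJ8). Concentration: 30 µM. Higher reads as stronger inhibition, judged from the few compounds that gave an IC50. Of about 69,000 compounds tested this way, about 49 (0.071%) reached 50% or more in at least one test.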

Values are the deposited “Percent Effect”, in %.
How 0% and 100% were set is not recorded. Most values in the screen are low, and negative values occur.
The compounds are a random part of those screened.

For Fc1cnc(N2CCCC3(CCN(Cc4ccsc4)C3)C2)nc1.O=C(O)C(F)(F)F.O=C(O)C(F)(F)F (centres unmarked) the result was Toxoplasma: 15.84%; T. brucei: 36.06%; Leishmania in macrophages: 42.59%.
For CN(C)C[C@H]1OC[C@@H]2CN(C(=O)NCc3cccc(F)c3)CC[C@@H]21 the result was PfKRS1: 4.423%.
For CN(CC1CC1)C(=O)c1cc2c(c(S(N)(=O)=O)c1)CCC2 the result was Toxoplasma: -4.701%; T. brucei: 11.47%; Leishmania in macrophages: 22.4%; PfKRS1: 0.1586%.
For Cc1cnc(C(=O)NC(CN2CCCC2=O)c2ccccc2)cn1 (centres unmarked) the result was Toxoplasma: 5.65%; T. brucei: 3.717%; Leishmania in macrophages: 18.21%; PfKRS1: -0.6226%.
For COCC1c2nnn(CC3CC3)c2CCN1C(=O)c1cc(C)on1 (centres unmarked) the result was Toxoplasma: -0.4741%; T. brucei: -157.7%; Leishmania in macrophages: 0.5859%; PfKRS1: 1.451%.
For O=C(CC1CC1)NCc1cc(=O)n2c(n1)CN(Cc1ccoc1)CCC2 the result was Toxoplasma: 14.63%; T. brucei: 5.916%; Leishmania in macrophages: 19.36%; PfKRS1: -1.566%.
For NC(=O)CN1CCC(C(=O)NCCn2cc(Cl)cn2)CC1 the result was Toxoplasma: -4.65%; Leishmania in macrophages: -32.91%; PfKRS1: 1.766%.
For Cc1ccc([C@@H]2CN(S(=O)(=O)C(C)C)C[C@H]2N(C)C)cc1 the result was Toxoplasma: -1.542%; T. brucei: 3.511%; Leishmania in macrophages: 25.85%; PfKRS1: 3.39%.
For NCCC(=O)N1CCC2(CC1)CN(C(=O)c1ccc(Cl)cc1)CCO2 the result was Toxoplasma: 0.3412%; Leishmania in macrophages: 0.3697%; PfKRS1: 4.038%.
For CC(C)Nc1nc(-c2ccccc2)nc2c1CCN(C(=O)C1CC1)CC2 the result was PfKRS1: 4.097%.
For CCn1nc(C)c(CCNC(=O)C2CCCN(C(=O)N(C)C)C2)c1C (centres unmarked) the result was Toxoplasma: -3.983%; T. brucei: -5.29%; Leishmania in macrophages: -16.17%; PfKRS1: 7.523%.
For [H][C@]12CC[C@]([H])(CN(Cc3ccccc3C#N)C1)N(CC1CC1)C2=O the result was Toxoplasma: -4.962%; T. brucei: 4.207%; Leishmania in macrophages: 6.562%.
For Cc1ccc(CN2CCOC(C)(c3cnn(C)c3)C2)cc1 (centres unmarked) the result was Toxoplasma: 5.316%; T. brucei: -36.77%; Leishmania in macrophages: 2.972%; PfKRS1: 1.527%.
For COc1ccc(C(C)NCc2c[nH]nc2C)cc1Br.Cl (centres unmarked) the result was Toxoplasma: -4.824%; T. brucei: 28.3%; Leishmania in macrophages: 31.23%.
For Cl.O=C(O)[C@@H]1CCCN1c1nccc(Nc2ccccc2)n1 the result was Toxoplasma: -3.738%; T. brucei: -31.15%; Leishmania in macrophages: -6.957%.
For Cc1occc1C(=O)N1CCC2(CCC(C(=O)NCC3CC3)O2)CC1 (centres unmarked) the result was Toxoplasma: 6.758%; T. brucei: 0.6203%; Leishmania in macrophages: 34.9%; PfKRS1: 7.838%.
For O=C(O)c1nc(SCc2ccc(F)cc2)ncc1Br the result was Toxoplasma: 11.52%; T. brucei: 5.228%; Leishmania in macrophages: -10.74%; PfKRS1: 7.067%.
For CS(=O)(=O)N1CCC(c2cncc(Cl)n2)CC1 the result was Toxoplasma: 9.789%; T. brucei: -38.17%; Leishmania in macrophages: -41.58%; PfKRS1: -2.604%.
For N[C@H]1CC[C@@H](n2cc(C(=O)NC3CCc4ccccc4C3)nn2)CC1 (some centres unmarked) the result was Toxoplasma: 13.6%; T. brucei: -49.52%; Leishmania in macrophages: 21.24%; PfKRS1: 3.912%.
For Cc1ccc(C(C(=O)NCCc2nc(C)cc(C)n2)N(C)C)cc1 (centres unmarked) the result was Toxoplasma: 16.29%; T. brucei: -45.7%; Leishmania in macrophages: 12.38%; PfKRS1: 1.497%.
For [H][C@]12CCN(C(=O)CC(C)(C)C)CC[C@@]1([H])S(=O)(=O)CCN2S(C)(=O)=O the result was Toxoplasma: 9.899%; T. brucei: 13.31%; Leishmania in macrophages: 5.103%.
For O=C(O)C(F)(F)F.O=C(O)C(F)(F)F.[H][C@@]12CCN(Cc3cccc(C)n3)[C@@]1([H])CCN2C(=O)c1ccoc1C the result was Toxoplasma: 3.164%; T. brucei: -43.67%; Leishmania in macrophages: 32.03%.
For CSCC(=O)N(C)Cc1noc(-c2ccccc2)n1 the result was Toxoplasma: 2.716%; T. brucei: -14%; Leishmania in macrophages: -8.638%; PfKRS1: 4.415%.
For CC(C)(C)c1noc(CCC(=O)N(CC2CCOC2)C2CC2)n1 (centres unmarked) the result was Toxoplasma: 1.908%; T. brucei: -35.53%; Leishmania in macrophages: -17.76%; PfKRS1: 3.658%.
For Cc1nc(C(C)C)sc1C(C)N(C)C(=O)c1ccc(=O)n(C)c1 (centres unmarked) the result was Toxoplasma: 1.147%; T. brucei: -34.28%; Leishmania in macrophages: 4.573%; PfKRS1: 6.978%.
For Cn1ccnc1SCC(=O)NCc1ccc2c(c1)CCC(=O)N2 the result was Toxoplasma: 2.083%; T. brucei: -10.76%; Leishmania in macrophages: 1.639%; PfKRS1: 4.73%.
For COc1cc(CNC(=O)c2csc(Br)c2)ccn1 the result was Toxoplasma: 5.971%; T. brucei: -8.656%; Leishmania in macrophages: 18.58%; PfKRS1: 4.438%.
For Cc1ccc2cc(C(=O)N3CCCC3Cn3cccn3)[nH]c2c1 (centres unmarked) the result was Toxoplasma: 12.54%; T. brucei: 11.56%; Leishmania in macrophages: 22.94%; PfKRS1: -2.446%.
For Cc1nnc(N2C[C@@H]3CCCO[C@@H]3[C@H](N(C)C)C2)s1 the result was PfKRS1: -5.259%.
For c1ccc(OCCN2CCC(n3cncn3)CC2)cc1 the result was Toxoplasma: -5.998%; T. brucei: 2.878%; Leishmania in macrophages: -8.295%; PfKRS1: 1.383%.
For CO[C@@H]1CC[C@H]2[C@H]1OCCN2C(=O)C1CCOCC1 the result was PfKRS1: 1.199%.

The values are deposited in ChEMBL (CHEMBL3988442, “University of Dundee, Small-Polar-MMV Screening Library” (2021)).